Assay: peptide synthesis
Conditions: late stage modification step

Substance | step yield (methanesulfonate) [%] | step yield (methanesulfonate (mesylate) by ion exchange resin) [%]
4-(4-Acetoxy-2-(prop-2-yn-1-yloxy)benzyl)-4-((4S,7S,10S,13S)-10-benzyl-7-isobutyl-15-methyl-13-((R)-2-methyloxirane-2-carbonyl)-2,5,8,11-tetraoxo-4-phenethyl-3,6,9,12-tetraazahexadecyl)morpholin-4-ium methanesulfonate | 74 | –
4-(4-Acetoxy-3-(prop-2-yn-1-yloxy)benzyl)-4-((4S,7S,10S,13S)-10-benzyl-7-isobutyl-15-methyl-13-((R)-2-methyloxirane-2-carbonyl)-2,5,8,11-tetraoxo-4-phenethyl-3,6,9,12-tetraazahexadecyl)morpholin-4-ium methanesulfonate | 50 | –
4-(4-acetoxy-3-((1-(5-((2-PEG3K-ethyl)amino)-5-oxopentyl)-1H-1,2,3-triazol-4-yl)methoxy)benzyl)-4-((4S,7S,10S,13S)-10-benzyl-7-isobutyl-15-methyl-13-((R)-2-methyloxirane-2-carbonyl)-2,5,8,11-tetraoxo-4-phenethyl-3,6,9,12-tetraazahexadecyl)morpholin-4-ium mesylate | – | 57
4-((4S,7S,10S,13S)-10-Benzyl-7-isobutyl-15-methyl-13-((R)-2-methyloxirane-2-carbonyl)-2,5,8,11-tetraoxo-4-phenethyl-3,6,9,12-tetraazahexadecyl)-4-(2-(prop-2-yn-1-yloxy)-4-(propionyloxy)benzyl)morpholin-4-ium methanesulfonate | 97 | –
4-((4S,7S,10S,13S)-10-Benzyl-7-isobutyl-15-methyl-13-((R)-2-methyloxirane-2-carbonyl)-2,5,8,11-tetraoxo-4-phenethyl-3,6,9,12-tetraazahexadecyl)-4-(4-(butyryloxy)-3-(prop-2-yn-1-yloxy)benzyl)morpholin-4-ium methanesulfonate | 92 | –
4-((4S,7S,10S,13S)-10-Benzyl-7-isobutyl-15-methyl-13-((R)-2-methyloxirane-2-carbonyl)-2,5,8,11-tetraoxo-4-phenethyl-3,6,9,12-tetraazahexadecyl)-4-(4-(isobutyryloxy)-3-(prop-2-yn-1-ylcarbamoyl)benzyl)morpholin-4-ium bromide | 15 | –
4-((4S,7S,10S,13S)-10-Benzyl-7-isobutyl-15-methyl-13-((R)-2-methyloxirane-2-carbonyl)-2,5,8,11-tetraoxo-4-phenethyl-3,6,9,12-tetraazahexadecyl)-4-(4-(isobutyryloxy)-3-(prop-2-yn-1-yloxy)benzyl)morpholin-4-ium methanesulfonate | 44 | –
